We go through five molecules from PMC11723901.

These are yes or no findings as the source states them, for the method shown. In cells and extracts the contact can be indirect. These calls come from enrichment with a bait or labelling near it, and not all partners need be listed.

Sequences and labels used below:
B1: MADS-box protein AGL18 (protein, UniProt Q9M2K8 1-256)
chain: MGRGRIEIKKIENINSRQVTFSKRRNGLIKKAKELSILCDAEVALIIFSSTGKIYDFSSVCMEQILSRYGYTTASTEHKQQREHQLLICASHGNEAVLRNDDSMKGELERLQLAIERLKGKELEGMSFPDLISLENQLNESLHSVKDQKTQILLNQIERSRIQEKKALEENQILRKQVEMLGRGSGPKVLNERPQDSSPEADPESSSSEEDENDNEEHHSDTSLQLGLSSTGYCTKRKKPKIELVCDNSGSQVASD
B2: MADS-box protein AGL15 (protein, UniProt Q38847 1-268)
chain: MGRGKIEIKRIENANSRQVTFSKRRSGLLKKARELSVLCDAEVAVIVFSKSGKLFEYSSTGMKQTLSRYGNHQSSSASKAEEDCAEVDILKDQLSKLQEKHLQLQGKGLNPLTFKELQSLEQQLYHALITVRERKERLLTNQLEESRLKEQRAELENETLRRQVQELRSFLPSFTHYVPSYIKCFAIDPKNALINHDSKCSLQNTDSDTTLQLGLPGEAHDRRTNEGERESPSSDSVTTNTSSETAERGDQSSLANSPPEAKRQRFSV
B3: Floral homeotic protein APETALA 3 (protein, UniProt P35632 1-232)
chain: MARGKIQIKRIENQTNRQVTYSKRRNGLFKKAHELTVLCDARVSIIMFSSSNKLHEYISPNTTTKEIVDLYQTISDVDVWATQYERMQETKRKLLETNRNLRTQIKQRLGECLDELDIQELRRLEDEMENTFKLVRERKFKSLGNQIETTKKKNKSQQDIQKNLIHELELRAEDPHYGLVDNGGDYDSVLGYQIEGSRAYALRFHQNHHHYYPNHGLHAPSASDIITFHLLE
B4: Probable ubiquitin-like-specific protease 2B (EC 3.4.22.-) (enzyme, UniProt Q8L7S0 1-931)
chain: MKKNFEVFDFKEEDELAESAAGKLLEKFTNPSPCNSPVLQRQRIQSFCNEKRVEEEEMEGPSCAEPATAVESDDHQCEDDSTLVTEAKESRTILTFGLETTDHLEETDAEHVNQGLMLGLKTEDLAKETDIDHDNHGLMFGLNSEDDIEETDVDHRVESFSCQLGGNSFYAETSSYSQRQLNSPFSDSSSSEEQIDMMSAIDESLSDRSALSEASDSEDDEEDWMTEHCFNDEEKIDLSTAVIMTSEYVILKDMHCAASLVIFSCNGIKIKSFLANNEEVPFSCEFGVEDIVSIQYNWYQNVGLIILRIRVLLKDENCHEDMEELKIAVKEHNWPNKQQKINSLHVKYPAVWNTDLEDDVEVSGYNLNQQKRYFPSFDEPFEDVVYPKGDPDAVSICKRDVELLQPETFVNDTIIDFYINYLKNQIQTEEKHRFHFFNSFFFRKLADLDKDPSSIADGKAAFLRVRKWTRKVDMFGKDYIFVPVNYNLHWSLIVICHPGEVANRTDLDLDDSKKVPCILHMDSIKGSHAGLKNLVQTYLCEEWKERHKETSDDISSRFMNLRFVSLELPQQENSFDCGLFLLHYLELFLAEAPLNFSPFKIYNASNFLYLNWFPPAEASLKRTLIQKLIFELLENRSREVSNEQNQSCESPVAVNDDMGIEVLSERCSPLIDCNGDMTQTQDDQGIEMTLLERSSMRHIQAANDSGMVLRDLFDSGSNNTGSLLEQLQQPFEDPSSFYHLSNDSSAREQVDMETGEQFMCLNAGEGNFQCITETTSPRASNSFSSWNLGIPLVQKEDETDLLSETSNSSNDSIGIIEDNPIENTHEEEIDESPPRETVSLKSATVGSNTADHTTENEEPVSTHIELVVPSSQNDRDEEKPLEHDLEIGDKTSEDVGDDCDQKEPMEEEDEKRAAKRPRLSSPTGEAEEMEK
B5: Peptidyl-prolyl cis–trans isomerase FKBP53 (PPIase FKBP53) (protein, UniProt Q93ZG9 1-477)
chain: MGFWGLEVKPGKPQAYNPKNEQGKIHVTQATLGTGLSKEKSVIQCSIGDKAPIALCSLLPNKIECCPLNLEFDDDDEPVEFTVTGDRSIHLSGFLEYYQDDEDDYEHDEDDSDGIDVGESEEDDSCEYDSEEDEQLDEFEDFLDSNLERYRNAAAPKSGVIIEEIEDEEKPAKDNKAKQTKKKSQASEGENAKKQIVAIEGAHVPVLESEDEDEDGLPIPKGKSSEVENASGEKMVVDNDEQGSNKKRKAKAAEQDDGQESANKSKKKKNQKEKKKGENVLNEEAGQVQTGNVLKKQDISQISSNTKAQDGTANNAMSESSKTPDKSAEKKTKNKKKKKPSDEAAEISGTVEKQTPADSKSSQVRTYPNGLIVEELSMGKPNGKRADPGKTVSVRYIGKLQKNGKIFDSNIGKSPFKFRLGIGSVIKGWDVGVNGMRVGDKRKLTIPPSMGYGVKGAGGQIPPNSWLTFDVELINVQ

Substrate in this assay: …OOF 2 fused to GFP (SHP2-GFP) (Arabidopsis) (UniProt P29385)
Nature of the assay: affinity purification with mass spectrometry; GFP-trap magnetic beads (ChromoTek) on total protein from 1 g inflorescence of pSHP2:SHP2-GFP plants, with Col-0 wild type as control; lysis buffer 50 mM Tris/HCl pH 7.5, 150 mM NaCl, 10 mM MgCl2, 10% glycerol, 1 mM EDTA, 2 mM DTT, 1% Triton X-100, NP40; LC-MS/MS (DIA); three biological replicates.
As to B1, the binding result is “binds”.

For B2, the binding entry was “binds”.

For B3, the binding result is listed as “binds”.

In the case of B4, the binding entry was “binds”.

Take B5: the binding result was “binds”.
